Measurements: PubChem BioAssay AID192 (DTP/NCI, 2004)
The list is a part of this screen's results and no random one: it gathers tests that were run many times, whatever their T/C, doses with no T/C, and many T/C values between a quarter and a half above the control. Further doses and runs are listed elsewhere. T/C gives the treated animals as a percentage of the vehicle group. Some doses have a count of surviving animals in place of a T/C: the source files T/C as zero there, which appears to mark a toxic dose or a test without result, not a measured value. Some doses without a T/C left all or most animals alive at the check, yet need not have been tolerated: the source hardly ever lists a survival T/C far under the control, and the zero likely stands for such cases as well. Survivors were counted at the toxicity check, usually on the fifth day, unless a day is given; later deaths do not show. Schedules are NCI's codes, read here as Q, the interval in days (D) or hours (H), X, the number of doses. Some entries were tested several times; the values are given in rising order. For survival time, the PubChem record calls one and a half times the control and up active, and a quarter to a half above the control has no call in these data; cut-offs in other NCI protocols can differ. Some T/C values carry the count of animals alive at the toxicity check (mostly the fifth day); where none is given, no animal had died by that day.

Tested on: BDF1 mice, B16 melanoma ip, median survival T/C
Test: NCI In Vivo Anticancer Drug Screen. Data for tumor model B16 Melanoma (intraperitoneal) in B6D2F1 (BDF1) mice
Conditions: T/C endpoint: median survival time, higher T/C = longer survival
How it was run: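 Transplantable tumor model; survival or tumor size measured; reported as T/C, treated over vehicle control.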

[1] = dose: 100.0 mg/kg/injection, schedule: Q01DX009 (ip), vehicle: saline with Tween-80
[2] = dose: 200.0 mg/kg/injection, schedule: Q01DX009 (ip), vehicle: saline with Tween-80
[3] = dose: 400.0 mg/kg/injection, schedule: Q01DX009 (ip), vehicle: saline with Tween-80
[4] = dose: 100.0 mg/kg/injection, schedule: Q01DX009 (ip), vehicle: Klucel (hydroxypropylcellulose) (HPC)
[5] = dose: 200.0 mg/kg/injection, schedule: Q01DX009 (ip), vehicle: Klucel (hydroxypropylcellulose) (HPC)
[6] = dose: 400.0 mg/kg/injection, schedule: Q01DX009 (ip), vehicle: Klucel (hydroxypropylcellulose) (HPC)
[7] = dose: 200.0 mg/kg/injection, schedule: Q04DX003 (ip), vehicle: Klucel (hydroxypropylcellulose) (HPC)
[8] = dose: 200.0 mg/kg/injection, schedule: Q01DX009 (ip), vehicle: saline
[9] = dose: 400.0 mg/kg/injection, schedule: Q01DX009 (ip), vehicle: saline

C=C1C(=O)O[C@@H]2/C=C(/C)[C@@]3(O)C=C[C@](C)(C[C@@H](OC(=O)/C(=C\C)COC(C)=O)[C@@H]12)O3
survivor count (dose: 0.06 mg/kg/injection, schedule: Q01DX009 (ip), vehicle: carboxymethylcellulose (CMC)): 8 of 10 | survivor count (dose: 0.5 mg/kg/injection, schedule: Q01DX009 (ip), vehicle: carboxymethylcellulose (CMC)): 9 of 10 | survivor count (dose: 1.0 mg/kg/injection, schedule: Q01DX009 (ip), vehicle: carboxymethylcellulose (CMC)): 3 of 10 | survivor count (dose: 2.0 mg/kg/injection, schedule: Q01DX009 (ip), vehicle: carboxymethylcellulose (CMC)): 1 of 10 | survivor count (dose: 4.0 mg/kg/injection, schedule: Q01DX009 (ip), vehicle: carboxymethylcellulose (CMC)): 2 of 10 | survivor count (dose: 8.0 mg/kg/injection, schedule: Q01DX009 (ip), vehicle: carboxymethylcellulose (CMC)): 3 of 10 | survivor count (dose: 27.0 mg/kg/injection, schedule: Q01DX009 (ip), vehicle: saline with Tween-80): 6 of 10 and 10 of 10 | survivor count (dose: 40.0 mg/kg/injection, schedule: Q01DX009 (ip), vehicle: saline with Tween-80): 2 of 10 | survivor count (dose: 60.0 mg/kg/injection, schedule: Q01DX009 (ip), vehicle: saline with Tween-80): 0 of 10

NC(Cc1cc(I)c(Oc2cc(I)c(O)c(I)c2)c(I)c1)C(=O)O (stereo not given)
survivor count (dose: 8.0 mg/kg/injection, schedule: Q01DX009 (ip), vehicle: saline): 10 of 10

CC1=CC(=NN=c2cc(C)n([O-])c(C)c2)C=C(C)[N+]1=O
T/C [1]: 132 % of control | T/C [2]: 130 % of control | survivor count [3]: 10 of 10

O=C1NC(c2ccccc2)C(=O)N1CCN(CCCl)CCCl (stereo not given)
survivor count (dose: 6.25 mg/kg/injection, schedule: Q01DX009 (ip), vehicle: saline): 9 of 10 | survivor count (dose: 25.0 mg/kg/injection, schedule: Q01DX009 (ip), vehicle: saline): 9 of 10

Cc1c(Cl)cccc1NC(=O)Nc1ccc(Cl)c(Cl)c1
survivor count [4]: 10 of 10 | survivor count [5]: 10 of 10 | survivor count [6]: 10 of 10

O=C(Nc1ccccc1C(=O)O)c1cc([N+](=O)[O-])cc([N+](=O)[O-])c1
survivor count [3]: 4 of 10

O=NN(CCF)C(=O)NC1CCC(NC(=O)N(CCF)N=O)CC1 (stereo not given)
T/C (dose: 6.25 mg/kg/injection, schedule: Q01DX009 (ip), vehicle: saline with Tween-80): 138 % of control | survivor count (dose: 37.5 mg/kg/injection, schedule: Q01DX009 (ip), vehicle: saline): 10 of 10

O=C(NCCCl)NCCCl
survivor count [1]: 9 of 10 | survivor count (dose: 800.0 mg/kg/injection, schedule: Q01DX009 (ip), vehicle: saline with Tween-80): 5 of 10

CC1OC2COC(C)OC2C(C(O)COC(c2ccccc2)(c2ccccc2)c2ccccc2)O1 (stereo not given)
survivor count [4]: 8 of 10 | survivor count [7]: 10 of 10 | survivor count [6]: 10 of 10

c1ccc(Cc2ccccc2)cc1
survivor count (dose: 50.0 mg/kg/injection, schedule: Q01DX009 (ip), vehicle: saline with Tween-80): 9 of 10 and 10 of 10 | survivor count [1]: 10 of 10 | survivor count [2]: 10 of 10

O=C1C(F)=C(N2CC2)C(=O)C(N2CCOCC2)=C1N1CC1
survivor count (dose: 6.0 mg/kg/injection, schedule: Q01DX009 (ip), vehicle: saline): 10 of 10

COc1cc2c(c(OC)c1OC)-c1ccc(SCc3ccccc3)c(=O)cc1[C@@H](NC(C)=O)CC2
survivor count (dose: 25.0 mg/kg/injection, schedule: Q01DX009 (ip), vehicle: Klucel (hydroxypropylcellulose) (HPC)): 5 of 10 and 7 of 10 | survivor count (dose: 50.0 mg/kg/injection, schedule: Q01DX009 (ip), vehicle: Klucel (hydroxypropylcellulose) (HPC)): 1 of 10 | survivor count [4]: 0 of 10 | survivor count [5]: 0 of 10 | survivor count [6]: 0 of 10

CC[CH2][Pb]([CH2]CC)([CH2]CC)[O]C(=O)C(Cl)(Cl)Cl
survivor count (dose: 8.0 mg/kg/injection, schedule: Q01DX009 (ip), vehicle: Klucel (hydroxypropylcellulose) (HPC)): 10 of 10 | survivor count (dose: 16.0 mg/kg/injection, schedule: Q01DX009 (ip), vehicle: Klucel (hydroxypropylcellulose) (HPC)): 4 of 10

COc1cccc(C(=O)c2ccncc2C)c1OC
survivor count (dose: 200.0 mg/kg/injection, schedule: Q01DX009 (ip), vehicle: water): 9 of 10

[N-]=[N+]=CC(=O)NCC(=O)NN
T/C (dose: 100.0 mg/kg/injection, schedule: Q01DX009 (ip), vehicle: other): 127 % of control | T/C (dose: 200.0 mg/kg/injection, schedule: Q01DX009 (ip), vehicle: other): 126 and 133 % of control | T/C (dose: 300.0 mg/kg/injection, schedule: Q01DX009 (ip), vehicle: other): 126 % of control | T/C (dose: 400.0 mg/kg/injection, schedule: Q01DX009 (ip), vehicle: other): 136 and 138 % of control | T/C (dose: 400.0 mg/kg/injection, schedule: Q02DX005 (ip), vehicle: other): 133 % of control | survivor count (dose: 500.0 mg/kg/injection, schedule: Q01DX009 (ip), vehicle: other): 6 of 6 | survivor count (dose: 600.0 mg/kg/injection, schedule: Q01DX009 (ip), vehicle: other): 5 of 6 | T/C (dose: 800.0 mg/kg/injection, schedule: Q02DX005 (ip), vehicle: other): 130 % of control

COc1cc2c(c(OC)c1OC)-c1ccc(SC)c(=O)cc1[C@@H](NC1OC(CO)C(O)C(O)C1O)CC2 (stereo not given in full)
survivor count (dose: 50.0 mg/kg/injection, schedule: Q01DX009 (ip), vehicle: saline): 6 of 10 | survivor count [8]: 2 of 10 | survivor count [9]: 0 of 10

CC[C@@]1(O)C[C@H](OC2CC(N(C)C)C(OC3CC(O)C(OC4CC(O)C(O)C(C)O4)C(C)O3)C(C)O2)c2c(cc3c(c2O)C(=O)c2c(O)ccc(O)c2C3=O)[C@H]1C(=O)OC (stereo not given in full)
T/C (dose: 0.12 mg/kg/injection, schedule: Q01DX009 (ip), vehicle: alcohol): 149 % of control | T/C (dose: 0.2 mg/kg/injection, schedule: Q01DX001 (ip), vehicle: saline): 132 % of control | T/C (dose: 0.25 mg/kg/injection, schedule: Q01DX009 (ip), vehicle: alcohol): 142 % of control | T/C (dose: 0.4 mg/kg/injection, schedule: Q01DX001 (ip), vehicle: saline): 141 % of control | T/C (dose: 0.5 mg/kg/injection, schedule: Q01DX009 (ip), vehicle: alcohol): 137 % of control [9 of 10 alive] | T/C (dose: 0.5 mg/kg/injection, schedule: Q01DX009 (ip), vehicle: other): 138 % of control [7 of 10 alive] | T/C (dose: 1.0 mg/kg/injection, schedule: Q01DX009 (ip), vehicle: other): 134 % of control [9 of 10 alive] | survivor count (dose: 2.0 mg/kg/injection, schedule: Q01DX009 (ip), vehicle: other): 9 of 10 | T/C (dose: 2.16 mg/kg/injection, schedule: Q01DX001 (ip), vehicle: water): 127 % of control | survivor count (dose: 3.2 mg/kg/injection, schedule: Q01DX001 (ip), vehicle: saline): 5 of 10 | T/C (dose: 3.6 mg/kg/injection, schedule: Q01DX001 (ip), vehicle: water): 133 % of control | survivor count (dose: 4.0 mg/kg/injection, schedule: Q01DX009 (ip), vehicle: other): 8 of 10 | T/C (dose: 6.0 mg/kg/injection, schedule: Q01DX001 (ip), vehicle: water): 141 % of control | survivor count (dose: 8.0 mg/kg/injection, schedule: Q01DX009 (ip), vehicle: other): 2 of 10 | survivor count (dose: 10.0 mg/kg/injection, schedule: Q01DX001 (ip), vehicle: water): 6 of 8

NC1=NC(=O)N2CC12 (stereo not given)
survivor count [8]: 8 of 10 | survivor count [9]: 3 of 10

C[N+](C)(C)CCOc1ccc(Cl)cc1
survivor count [7]: 3 of 10 | survivor count (dose: 400.0 mg/kg/injection, schedule: Q04DX003 (ip), vehicle: Klucel (hydroxypropylcellulose) (HPC)): 0 of 10

CN(C)CCN1c2ccccc2Sc2ccccc21
survivor count [8]: 3 of 10 | survivor count [9]: 0 of 10
